{"source": "patent US5047244A", "about": "“Mucoadhesive carrier for delivery of therapeutical agent” (priority 1988, dated 1991)", "test": "In vitro therapeutic agent release (USP Dissolution Test Method II, 0.05M isotonic phosphate buffer pH 6.0 with 30 weight percent PEG 400)", "type": "physicochemical", "conditions": "Example 11 carrier; for In vitro release of nifedipine: 10 mg nifedipine", "description": "Therapeutic agent release studies were conducted using an Erweka dissolution test assembly in compliance with Dissolution Test Method II as described in The United States Pharmacopeia, 24th revision (USP XXIV). Five hundred milliliters of a 0.1M phosphate buffer dissolution fluid was maintained at about 37° C. (about 100° F.) and the […] was rotated at 50 revolutions per minute (rpm). At predetermined time points, samples of approximately 3 milliliters of the test medium were withdrawn from the flasks and immediately replaced with an equivalent volume of blank buffer. Analysis of the samples was performed by ultraviolet spectrophotometry. […] The time to achieve 20%, 50% and 80% by weight dissolution of the piroxicam was estimated from a linear plot of percent dissolved versus time.\nTherapeutic agent release testing was conducted by the USP Dissolution Test Method II. The dissolution medium chosen was 500 ml of a 0.05M isotonic phosphate buffer having a 6.0 pH with 30 weight percent PEG 400.\nAn equivalent of 20 mg of albuterol in a mucosal composition of a albuterol:PEG 8000 weight in a ratio of 1:2 was included in each carrier. […] Plots of weight percent therapeutic agent released versus time were constructed and the drug release parameter T (in hours) for a given weight and percent drug released was calculated from the plots.", "data": [{"smiles": "COC(=O)C1=C(C)NC(C)=C(C(=O)OC)C1c1ccccc1[N+](=O)[O-]", "note": "[nifedipine]", "values": [{"measurement": "In vitro release of nifedipine", "setting": "1 hour", "result": 4, "unit": "weight percent"}, {"measurement": "In vitro release of nifedipine", "setting": "2 hours", "result": 6.5, "unit": "weight percent"}, {"measurement": "In vitro release of nifedipine", "setting": "4 hours", "result": 10.7, "unit": "weight percent"}, {"measurement": "In vitro release of nifedipine", "setting": "8 hours", "result": 21.0, "unit": "weight percent"}, {"measurement": "In vitro release of nifedipine", "setting": "time not printed (between 4 and 8 hours)", "result": 18.7, "unit": "weight percent"}, {"measurement": "Order of release", "setting": "nifedipine", "result": "zero order therapeutic agent release"}]}]}
